# Results reported in patent US12036236B2, “Antimicrobial guanidinium macromolecules with bacteria targeting moieties” (International Business Machines Corporation, priority 2018, dated 2024).
# At least one compound was matched to its structure with a doubt left.
# System: clinically isolated MDR K. pneumoniae, E. coli, A. baumannii and MRSA strains
# Assay: MIC by broth microdilution against different types and strains of clinically isolated MDR bacteria
# Type: cell-based
# Details: MIC comparison
compound,measurement,value
C[C@@H](O)[C@H]1C(=O)N2C(C(=O)O)=C(SCCN=CN)C[C@H]12 [imipenem],spectrum of efficacy (Gram-negative / Gram-positive strains),only demonstrated efficacy against the Gram-negative strains
